From patent US20140073639A1 (priority 2012, published 2014)

How the values were obtained:
S. MRSA = experiment: microbe, parasite or virus in culture; assay type: cell-based; details: Staphylococcus aureus
B. Anthracis = experiment: microbe, parasite or virus in culture; assay type: cell-based; details: Bacillus anthracis

In the case of `O=S(=O)(c1ccc2[nH]c(SCc3cccc(Cl)c3)nc2c1)N1CCOCC1` [Cmpd 2], the inhibition at 10 µM (S. MRSA; read-out: S. MRSA 10 μM (growth inhibition)) was -24.8%, the inhibition at 30 µM (S. MRSA; read-out: S. MRSA 30 μM (growth inhibition)) was 46.2% and the inhibition at 3 µM (B. Anthracis; read-out: B. Anthracis 3 μM (growth inhibition)) was 0%. For the same molecule, the inhibition at 10 µM (B. Anthracis; read-out: B. Anthracis 10 μM (growth inhibition)) was 12% and the inhibition at 30 µM (B. Anthracis; read-out: B. Anthracis 30 μM (growth inhibition)) was 37.3%.
